Assay results published in PMC12040169 (PLOS Biology, 2025).
This is one part of the list.

system: T1, CTL2-GFP (C. trachomatis L2/434/Bu, GFP-expressing); set-up: species or system HeLa; Intracellular C. trachomatis growth in HeLa cells, bulk GFP fluorescence relative to DMSO; conditions: bulk GFP, single well; 28.5 h, 10 µM; inhibitor
T1 construct: L2/434/Bu, GFP-expressing

In order of rising “% of control remaining” value:
1. COc1ccccc1-c1ccccc1CC1(C(=O)NCc2cccc(F)c2)CCOCC1 [CBK286426]  70.76%
2. CNCCCC1(c2ccccc2)SC(C)(C)c2ccccc21 (stereo not shown) [CBK015933C]  75.6716%
3. CN(C)CCN1C(=O)C(O)=C(C(=O)c2ccco2)C1c1ccc([N+](=O)[O-])cc1 (stereo not shown) [CBK264486]  78.2622%
4. CC(C)OC(=O)c1cc2c(ccn2-c2ccc(F)cc2)n1CCC#N [CBK123921]  80.7452%
5. COc1ccc(C(NC(=O)NNC(=O)Cc2ccc(Cl)cc2)c2ccccc2C)cn1 (stereo not shown) [CBK083660]  82.1117%
6. O=C1NC2(CCCCC2)C(=O)N1Cc1cnn(-c2ccccc2)n1 [CBK305570]  86.5384%
7. COCCN(Cc1cnn(C)c1)C(=O)Cc1ccc(Cl)cc1 [CBK307407]  90.3493%
8. CCOC(=O)c1c(NC(=O)C2CCCN2S(=O)(=O)c2ccccc2)sc2c1CCCC2 (stereo not shown) [CBK265012]  93.9165%
9. CN(Cc1nc(-c2ccccc2)no1)C(=O)COCC1CCCCO1 (stereo not shown) [CBK307643]  94.1941%
10. O=C(NC(c1ccccc1)c1ccco1)C1CCN(CCN2C(=O)c3ccccc3C2=O)CC1 (stereo not shown) [CBK148297]  95.0785%
11. COc1ccc(C)cc1NC(=O)CN(c1ccc(F)cc1)S(=O)(=O)c1ccc(C)cc1 [CBK264122]  95.2055%
12. O=S(=O)(O)CCCSc1nc2ccccc2s1 [CBK260900N]  95.501%
13. Cc1ccc(CN(CCCn2ccnc2)Cc2ccccc2O)o1 [CBK283189]  95.8652%
14. Cc1nn(C)cc1S(=O)(=O)N1CCCC(c2cccc(Cc3ccccc3Cl)n2)C1 (stereo not shown) [CBK286127]  98.086%
15. O=S(=O)(Nc1ncc(Br)c2cccnc12)c1ccc(Oc2ccccc2)cc1 [CBK073886]  98.6713%
16. O=C(c1ccccc1)C(Sc1nnc2sc3ccccc3n12)c1ccccc1 (stereo not shown) [CBK265416]  100%
17. NCCCNC(=O)c1ccc(-c2cccc(C(F)(F)F)c2)o1 [CBK107454]  100%
18. COc1ccc(NC(=O)c2ccc(CN3CCOCC3)cc2)c(OC)c1 [CBK263790]  100%
19. Cc1cccc2cc(/C=C(\C#N)c3nc(-c4cc5ccccc5oc4=O)cs3)c(Cl)nc12 [CBK261642]  100%
20. COc1cccc(NC(=O)N2CCC(n3c(=O)n(C(=O)Nc4cccc(OC)c4)c4ccccc43)CC2)c1 [CBK149177]  100%
21. N=C1NC(=O)C(CC(=O)Nc2cccc([N+](=O)[O-])c2)S1 (stereo not shown) [CBK263944]  100%
22. COCCNc1nccnc1-c1cccc(C(F)(F)F)c1 [CBK037330]  101.372%
23. Cc1ccccc1Sc1ccc(C(F)(F)F)cn1 [CBK115237]  101.876%
24. COc1ccc(NC(=O)CSc2nc(N)n[nH]2)cc1Cl [CBK268065]  102.8%
25. Cn1nc(C2CCCN(C(=O)C3CC3)C2)c2cccnc21 (stereo not shown) [CBK282654]  102.909%
26. O=C(O)c1ccc(NC(=S)NC(NC(=O)c2ccco2)C(Cl)(Cl)Cl)cc1 (stereo not shown) [CBK261025]  102.97%
27. O=C1N=C(NC2CCCCCC2)SC1Cc1ccc(O)cc1 (stereo not shown) [CBK067868]  104.308%
28. CC(=O)Nc1cccc(C(C)NC(=O)N(C)C2CCc3ccccc32)c1 (stereo not shown) [CBK306251]  104.751%
29. CC1(C)C(N(O)C(=O)Nc2cccc3ccccc23)N(c2cccc3ccccc23)C(=O)N1CC(=O)NN (stereo not shown) [CBK261004]  105.145%
30. O=C1CC(C(=O)Nc2ccccc2)n2cnnc2N1 (stereo not shown) [CBK287980]  105.163%
31. CN(C)c1nc(N)nc(COc2ccccc2F)n1 [CBK288236]  105.619%
32. COc1ccc(CN2CCN(c3nccnc3OC)CC2)cc1 [CBK084216]  105.715%
33. CC1(C)NC(=O)N(CC(O)COc2ccc([N+](=O)[O-])cc2)C1=O (stereo not shown) [CBK262840]  106.129%
34. CC(=O)N[C@H](Cc1c[nH]c2ccccc12)C(=O)N1CC[C@H]2NC(=O)[C@H](Cc3ccccc3)NC(=O)C3(C/C=C/C[C@H]2C1)CCOCC3 [CBK292205]  106.577%
35. CCOC(=O)COc1cccc(/C=C2/SC(=S)N(c3cccc(C(=O)O)c3)C2=O)c1 [CBK265589]  107.563%
36. CCOc1cc(C(=S)N2CCCCC2)ccc1OC(=O)c1ccccc1Cl [CBK019660]  108.143%
37. O=S1(=O)CCN(Cc2ccc3c(c2)OCCCO3)CC1 [CBK074831]  108.544%
38. CCCCc1c(C)nc2ccc(Br)cc2c1SCCC(=O)O [CBK126915]  108.552%
39. O=[N+]([O-])c1ccc(CN2CCC(Oc3cncc(OCCN4CCOCC4)n3)C2)cc1 (stereo not shown) [CBK084485]  110.476%
40. Cc1cc(CN(C)c2nccc(N3CCN[C@H]4CS(=O)(=O)C[C@H]43)n2)no1 [CBK306580]  110.785%
41. CCOC(=O)c1cnn2c(O)cc(CN3CCc4ccccc4C3)nc12 [CBK305679]  112.626%
42. Cc1ccc(Cl)cc1NC(=O)C1CC(=O)N(Cc2ccccn2)C1 (stereo not shown) [CBK305561]  113.603%
43. CCN1C(=O)CC2(C1=O)C(=O)N(CCCOc1ccccc1)c1ccc(OC)cc12 (stereo not shown) [CBK075585]  113.688%
44. COc1ccc2[nH]cc(CCNC(=O)c3ccc(NC(C)=O)cc3)c2c1 [CBK269296]  114.116%
45. CN(Cc1cc(Br)cs1)C(=O)CCN1C(=O)COc2ccccc21 [CBK298308]  114.464%
46. c1ccc(-c2nc3ccc(Cc4ccc5nc(-c6ccccn6)c(-c6ccccn6)nc5c4)cc3nc2-c2ccccn2)nc1 [CBK261975]  115.726%
47. O=C(NCn1nnc2ccccc21)c1ccccc1 [CBK056950]  115.846%
48. O=C1CC(c2cccs2)Sc2nc3ccccc3n21 (stereo not shown) [CBK091627]  117.125%
49. O=C(Nc1cccc(C(F)(F)F)c1)N[C@H]1CO[C@H]2[C@@H]1OC[C@H]2O [CBK289476]  117.826%
50. COC(=O)[C@H]1CN(C(=O)c2cccs2)C[C@@H]1c1ccc(F)cc1 [CBK283732]  118.632%
51. O=C(O)COCc1nn(-c2ccc(Br)cc2)c2c1CCCC2 [CBK016404]  118.647%
52. COc1ccc2c(c1)C1(CC(=O)N(CC3CCCCC3)C1=O)C(=O)N2C (stereo not shown) [CBK075201]  119.121%
53. Cc1ccc(-c2ccc(CCC(=O)O)n2NC(=O)c2ccc([N+](=O)[O-])cc2)cc1 [CBK264776]  120.587%
54. COC(C)(C)C(=O)N1CCCC(c2ccc(Cc3cccc(C(F)(F)F)c3)cn2)C1 (stereo not shown) [CBK286124]  121.875%
55. Cc1n[nH]c(NCc2cccc(Cl)c2Cl)n1 [CBK288037]  122.58%
56. COC(=O)c1sc(NC(=O)C2CC2)c(C#N)c1C [CBK026049]  122.602%
57. Cn1cnnc1CNC(=O)N1CCN(Cc2cccs2)CC1 [CBK305045]  123.003%
58. COc1ccc(-c2noc([C@@H]3C[C@@H](O)CN3C3CCOCC3)n2)cc1 [CBK288844]  123.865%
59. CC(C)(C)OC(=O)NCCCn1cc(C(=O)O)nn1 [CBK287028]  124.144%
60. CC(=O)Nc1ccc(S(=O)(=O)N2CCN(C(=O)COc3ccc(C)cc3)CC2)cc1 [CBK264268]  124.937%
61. CC(C)NC(=O)[C@H]1O[C@H](CCN2CCOCC2)CC[C@@H]1O [CBK288720]  125.068%
62. O=C(NC1CCCc2c1cnn2Cc1ccccc1)c1ccncc1 (stereo not shown) [CBK282250]  125.929%
63. NS(=O)(=O)c1ccc(CCNC(=O)/C=C/c2ccccc2[N+](=O)[O-])cc1 [CBK265709]  127.821%
64. COc1ccc(OCc2nnn[nH]2)cc1 [CBK270000]  128.557%
65. O=S(=O)(Cc1csc(N2CCOCC2)n1)c1ccccn1 [CBK011137]  131.529%
66. CCOC(=O)N/N=C(/C)C(C)(C)C [CBK016460]  131.728%
67. Cc1ccn(-c2ccc(N3CCC4(CC3)OCCO4)nn2)n1 [CBK305263]  134.57%
68. Clc1cccc(-c2cc(NCc3cccs3)n3nccc3n2)c1 [CBK037238]  135.873%
69. Cc1ccccc1C(=O)N1CCC(O)(Cn2ccnc2C)CC1 [CBK284950]  136.82%
70. O=C(O)C1CCN(c2cncc(-c3ccc4ccccc4c3)n2)CC1 [CBK065801]  136.893%
71. COC(=O)c1cn([C@H]2CO[C@H]3[C@@H]2OC[C@@H]3NC(=O)NC2CCCCC2)nn1 [CBK289499]  137.824%
72. Nc1cc(C(=O)c2ccc(Br)c(N)c2)ccc1Cl [CBK269708]  138.308%
73. CSc1ncc(Cl)c(C(=O)Nc2nc(-c3ccc(S(=O)(=O)N4CCCCCC4)cc3)cs2)n1 [CBK268785]  140.754%
74. Cc1cccc(OCCCn2cncc2-c2cn(C)nc2C)c1 [CBK281766]  146.62%
75. c1csc(CNc2c(-c3cccs3)nc3cnccn23)c1 [CBK283685]  154.077%
76. Cc1ccccc1-c1ccc(C(=O)N(C)CCN(C)C)c(N(C)C)n1 [CBK106090]  158.81%
77. CCc1nnc(N/N=C/c2cccs2)n1N [CBK026233C]  159.444%
78. CSc1nnc(C2CCCN2C(=O)[C@@H]2C[C@@H]3C=C[C@H]2C3)n1C (stereo partly shown) [CBK282012]  168.559%
79. Cc1noc(C)c1NC(=O)c1cc2ccccc2n1C [CBK200311]  171.482%
